Experimental data published in US6913900B2, “Plasma prekallikrein activation and kallikrein production assay” (Nippon Zoki Pharmaceutical Co., Ltd., priority 2001, dated 2005).
At least one structure is not confirmed: it was looked up by name or label, or the drawing left a doubt. Starred links: 1 amine or outer side, 2 acyl side, 3 side chain; linkers in the order of their positions; H or OH if unused. Residues, ends and D or L forms follow the SMILES beside them. CO = O=C([*:1])[*:2]

Tested on: prekallikrein activating factor (PK activation)
Experiment: Inhibition profile of PK activation (prekallikrein activation assay, kallikrein substrate S-2302, O.D. 405 nm)
Type: biochemical, human
From the text: In embodiments of the invention the reaction time may be fixed or “set.” The reaction time can be “set” by stopping the production of kallikrein, for example, by adding a prekallikrein activation inhibitor to the system of the present invention after a desired reaction time. Also, by adding a coloring or fluorescent synthetic substrate to the reaction system from the start or beginning, the produced amount of kallikrein (coloring or fluorescent intensity) may be observed at different lapses of time. […] When the reaction is stopped, the produced kallikrein can be quantitatively determined using an enzymatic activity of kallikrein as a target, for example, by applying a substrate to kallikrein.
When the reaction is stopped, the produced plasma kallikrein can be determined using an enzymatic activity of the plasma kallikrein as a target by utilizing a substrate to the plasma kallikrein.
Assays were performed in HEPES buffered saline (HBS) (10 mM Hepes, 137 mM NaCl, 4 mM KCl, 11 mM D-glucose, and 0.5 mg/ml RIA grade bovine serum albumin, pH 7.4), with a kallikrein specific substrate (0.6 mM S-2302). […] The absorbance (O.D. at 405 nm or optical density at 405 nm) was monitored at room temperature on a Molecular Devices (Sunnyvale, Calif.) THERMOmax microplate reader. […]

CC(C)[C@H](NC(=O)[C@H](CCCNC(=N)N)NC(=O)N[C@@H](Cc1ccccc1)C(=O)O)C(=O)N[C@H](C=O)CCCNC(=N)N [Antipain] ({Phe-CO}-Arg-Val-Arg-aldehyde)
inhibition of the prekallikrein activator in this system (in words): good inhibitors
% inhibition of PK activation (inhibitor concentration 100 μM): 98.6%
